Measured values from PubChem BioAssay AID504465 (National Center for Advancing Translational Sciences (NCATS), 2011).
Out of some 2,100 compounds screened, about 210 (10%) were called active. Inconclusive means that the source gave no clear call. Such entries were picked first, then a sample of the others. Calls come from the whole dose curve; as a rule, active = well fitted inhibition curve with a large enough effect; inconclusive = small, poorly fitted or top-dose-only effect, or effect the other way; inactive = no such curve, though single readings can be large or run the other way. Where the call is inconclusive, the potency comes from a doubtful curve fit.

Experiment: IN Cell qHTS Assay for Inhibitors of the mTORC1 Signaling Pathway in MEF (Tsc2-/-, p53-/-) Cells: Sytravon; note: nearly all actives have a fitted effect of over 60% in size
Conditions: phospho-rpS6 immunofluorescence, 24 h; series mostly up to 38.3 µM
Procedure, shortened: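 Tsc2-/-, p53-/- MEFs (empty-vector) treated with compound 24 h at 37 degree Celsius, then fixed and stained for phospho-rpS6 Ser235/236 (Alexa-488) plus Hoechst. Reported as % positive cells, thresholds set against 7.5 nM rapamycin and DMSO wells.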
Potency is the fitted concentration of half-maximal effect.

SMILES | Potency
O=C(CCCCn1c(=O)[nH]c2ccsc2c1=O)N1CCN(c2cccc(Cl)c2)CC1 | inactive
CCN(CC)CCCNC(=O)Cn1c(-c2cccs2)cc2cc(Cl)ccc21 | inconclusive: 23.3 µM [falling, single point]
Cc1ccc2nc(N(CCCN(C)C)C(=O)c3ccc(Br)s3)sc2c1 | inconclusive: 26.1 µM [falling, single point]
COc1ccc(-c2noc(N3CCC(C(=O)Nc4ccc(C)c(F)c4)CC3)n2)cc1OC | inconclusive: 0.131 µM [falling, full curve, poor fit]
CC(C)OCCCN1C(=O)c2[nH]nc(-c3ccccc3O)c2C1c1ccc(OCc2ccccc2)cc1 (configuration not stated) | active: 18.5 µM
Cc1ccc(NC(=O)c2cc(S(=O)(=O)N3CCCCCC3)ccc2F)cc1F | inactive
CCN(c1ccccc1)S(=O)(=O)c1ccc(NC(=O)c2nc(S(C)(=O)=O)ncc2Cl)cc1 | active: 2.07 µM
O=S(=O)(c1ccccc1)n1nc(-c2ccc(Cl)cc2)nc1NCc1ccccc1 | inconclusive: 26.1 µM [falling, single point]
CC1=C(C(=O)Nc2ccc(Cl)cc2)C(c2ccccc2)n2ncc(C(=O)Nc3ccccc3)c2N1 (configuration not stated) | inactive
CCn1c2c(c(=O)n3ncc(C(=O)N4CCN(c5ccc(Cl)cc5)CC4)c13)CN(Cc1ccc(OC)cc1)CC2 | inactive
Cc1c(C(=O)OCc2ccccc2)[nH]c2c1C(=O)CC(c1ccc(Cl)cc1)C2 (configuration not stated) | inconclusive: 20.7 µM [falling, partial curve, poor fit]
CC(C)OCc1cc(CN2CCN(c3cccc(C(F)(F)F)c3)CC2)c(O)c2ncccc12 | inconclusive: 0.736 µM [falling, full curve, poor fit]
CCC(C)NC(=O)Cn1c(=O)n(Cc2ccc(C(=O)NCc3ccc(C)cc3)cc2)c(=O)c2ccccc21 (configuration not stated) | inconclusive: 26.1 µM [falling, single point]
COc1ccccc1-c1cc(C(F)(F)F)nc(S(=O)(=O)CCCC(=O)Nc2cc(C)ccc2O)n1 | inconclusive: 6.56 µM [falling, partial curve, poor fit]
COc1cccc(C(=O)NCC(=O)OCc2cc(=O)n3nc(C)sc3n2)c1 | inconclusive: 4.14 µM [falling, single point]
CCCC(=O)Nc1nnc(SCc2cc(=O)c3ccc(C)cc3[nH]2)s1 | active: 3.69 µM
COc1cccc(-c2ccc3c(N)c(C(=O)c4ccc(Br)cc4)sc3n2)c1 | inconclusive: 5.21 µM [falling, partial curve, poor fit]

A few values from the results shown.
`CCn1c2c(c(=O)n3ncc(C(=O)N4CCN(c5ccc(Cl)cc5)CC4)c13)CN(Cc1ccc(OC)cc1)CC2` | Potency: inactive
`Cc1ccc(NC(=O)c2cc(S(=O)(=O)N3CCCCCC3)ccc2F)cc1F` | Potency: inactive
